Reference: US10563263B2, “Genetic polymorphisms associated with statin response and cardiovascular diseases, methods of detection and uses thereof” (CELERA CORPORATION, priority 2010, dated 2020)
This continues a long series; more values of the same kind are listed elsewhere.

Test system: revascularization, unstable angina requiring hospitalization, MI, all causes of death, or stroke
Assay: PROVE IT-TIMI 22: SNP by treatment interaction (high-dose atorvastatin vs standard-dose pravastatin), logistic regression (synergy index), primary composite endpoint
Type: in vivo, human

For CC(C)c1c(C(=O)Nc2ccccc2)c(-c2ccccc2)c(-c2ccc(F)cc2)n1CC[C@@H](O)C[C@@H](O)CC(=O)O [Atorvastatin, atorvastatin], the OR (rs10784891, allele C, ADD, Imputed, atorvastatin vs pravastatin) was 0.7472, the OR (rs10784891, allele C, DOM, Imputed) was 0.7374 and the OR (rs10784891, allele C, DOM, Imputed, atorvastatin vs pravastatin) was 0.7374. It also gave an OR (rs10787923, allele G, DOM, Imputed) of 1.448, an OR (rs10787923, allele G, DOM, Imputed, atorvastatin vs pravastatin) of 1.448 and an OR (rs10787924, allele T, DOM, Imputed, atorvastatin vs pravastatin) of 1.341. It also gave an OR (rs10787949, allele A, DOM, Imputed) of 1.352, an OR (rs10787949, allele A, DOM, Imputed, atorvastatin vs pravastatin) of 1.352 and an OR (rs10787951, allele G, DOM, Imputed) of 1.349. The OR (rs10787951, allele G, DOM, Imputed, atorvastatin vs pravastatin) was 1.349, the OR (rs10787983, allele C, DOM, Imputed) was 1.351 and the OR (rs10787983, allele C, DOM, Imputed, atorvastatin vs pravastatin) was 1.351. The OR (rs10788380, allele C, ADD, Imputed) was 1.318, the OR (rs10788380, allele C, DOM, Imputed) was 1.663 and the OR (rs10794733, allele C, ADD, Imputed, atorvastatin vs pravastatin) was 0.6594. The OR (rs10814418, allele G, DOM, Imputed) was 1.184, the OR (rs10818280, allele C, DOM, Imputed, atorvastatin vs pravastatin) was 0.6208 and the OR (rs10831417, allele A, ADD, Imputed) was 1.151. For the same compound, the OR (rs10860586, allele A, ADD, Imputed, atorvastatin vs pravastatin) was 0.9019, the OR (rs10870473, allele A, DOM, Imputed, atorvastatin vs pravastatin) was 1.887 and the OR (rs10871302, allele A, DOM, Imputed) was 2.011. The OR (rs10877463, allele C, DOM, Imputed) was 0.5826, the OR (rs10877468, allele C, DOM, Imputed) was 0.5848 and the OR (rs10879240, allele C, ADD, Imputed) was 0.7296. It also gave an OR (rs10879240, allele C, ADD, Imputed, atorvastatin vs pravastatin) of 0.7296, an OR (rs10879242, allele A, ADD, Imputed, atorvastatin vs pravastatin) of 0.7715 and an OR (rs10879242, allele A, DOM, Imputed) of 0.7102. It also gave an OR (rs10879242, allele A, DOM, Imputed, atorvastatin vs pravastatin) of 0.7102, an OR (rs10879245, allele G, ADD, Imputed, atorvastatin vs pravastatin) of 0.7715 and an OR (rs10879245, allele G, DOM, Imputed) of 0.7102. The OR (rs10879245, allele G, DOM, Imputed, atorvastatin vs pravastatin) was 0.7102, the OR (rs10879249, allele T, ADD, Imputed, atorvastatin vs pravastatin) was 0.7823 and the OR (rs10879249, allele T, DOM, Imputed) was 0.7247. The OR (rs10879249, allele T, DOM, Imputed, atorvastatin vs pravastatin) was 0.7247, the OR (rs10886429, allele A, DOM, Imputed, atorvastatin vs pravastatin) was 1.296 and the OR (rs10886449, allele G, DOM, Imputed, atorvastatin vs pravastatin) was 1.337. For the same compound, the OR (rs10886451, allele G, DOM, Imputed, atorvastatin vs pravastatin) was 1.337, the OR (rs10886456, allele G, DOM, Imputed, atorvastatin vs pravastatin) was 1.337 and the OR (rs10886463, allele C, DOM, Imputed) was 1.352. The OR (rs10886463, allele C, DOM, Imputed, atorvastatin vs pravastatin) was 1.352, the OR (rs10886465, allele A, DOM, Imputed) was 1.355 and the OR (rs10886465, allele A, DOM, Imputed, atorvastatin vs pravastatin) was 1.355. For the same compound, the OR (rs10902437, allele G, ADD, Imputed) was 1.494, the OR (rs10922903, allele C, REC, Imputed, atorvastatin vs pravastatin) was 0.9678 and the OR (rs10941126, allele G, ADD, Imputed) was 0.9741. The OR (rs10941126, allele G, ADD, Imputed, atorvastatin vs pravastatin) was 0.9741, the OR (rs10941126, allele G, DOM, Imputed) was 1.136 and the OR (rs10941126, allele G, DOM, Imputed, atorvastatin vs pravastatin) was 1.136. It also gave an OR (rs10947871, allele A, DOM, Imputed) of 2.143, an OR (rs10947980, allele G, ADD, Imputed, atorvastatin vs pravastatin) of 1.004 and an OR (rs10973012, allele A, DOM, Imputed) of 1.177. It also gave an OR (rs10974028, allele G, ADD, Genotyped) of 1.203, an OR (rs11059376, allele T, ADD, Imputed, atorvastatin vs pravastatin) of 1.086 and an OR (rs11072995, allele T, REC, Imputed, atorvastatin vs pravastatin) of 2.198. It also gave an OR (rs11081202, allele G, REC, Genotyped, atorvastatin vs pravastatin) of 3.218, an OR (rs11099644, allele G, REC, Imputed) of 0.7905 and an OR (rs11124962, allele A, DOM, Imputed, atorvastatin vs pravastatin) of 1.26. It also gave an OR (rs11138315, allele G, ADD, Imputed) of 0.5453, an OR (rs11149802, allele T, DOM, Imputed) of 2.011 and an OR (rs11178531, allele A, ADD, Imputed) of 0.7197. For the same compound, the OR (rs11178531, allele A, ADD, Imputed, atorvastatin vs pravastatin) was 0.7197, the OR (rs11178531, allele A, DOM, Imputed) was 0.6936 and the OR (rs11178531, allele A, DOM, Imputed, atorvastatin vs pravastatin) was 0.6936. It also gave an OR (rs11178575, allele C, REC, Imputed) of 2.252, an OR (rs11178577, allele T, REC, Imputed) of 2.243 and an OR (rs11178583, allele A, ADD, Imputed, atorvastatin vs pravastatin) of 0.7883. It also gave an OR (rs11178583, allele A, DOM, Imputed) of 0.7338, an OR (rs11178583, allele A, DOM, Imputed, atorvastatin vs pravastatin) of 0.7338 and an OR (rs11178589, allele T, ADD, Imputed, atorvastatin vs pravastatin) of 0.7796. For the same compound, the OR (rs11178589, allele T, DOM, Imputed) was 0.7215, the OR (rs11178589, allele T, DOM, Imputed, atorvastatin vs pravastatin) was 0.7215 and the OR (rs11178594, allele C, ADD, Imputed, atorvastatin vs pravastatin) was 0.7716. For the same compound, the OR (rs11178594, allele C, DOM, Imputed) was 0.7044, the OR (rs11178594, allele C, DOM, Imputed, atorvastatin vs pravastatin) was 0.7044 and the OR (rs11178602, allele T, ADD, Imputed, atorvastatin vs pravastatin) was 0.7699. The OR (rs11178602, allele T, DOM, Imputed) was 0.7005, the OR (rs11178602, allele T, DOM, Imputed, atorvastatin vs pravastatin) was 0.7005 and the OR (rs11178648, allele T, ADD, Imputed, atorvastatin vs pravastatin) was 0.754. For the same compound, the OR (rs11178648, allele T, DOM, Imputed) was 0.6786, the OR (rs11178648, allele T, DOM, Imputed, atorvastatin vs pravastatin) was 0.6786 and the OR (rs11221075, allele A, ADD, Imputed) was 0.4912. For the same compound, the OR (rs11221075, allele A, ADD, Imputed, atorvastatin vs pravastatin) was 0.4912, the OR (rs11242020, allele T, DOM, Imputed) was 0.593 and the OR (rs11242020, allele T, DOM, Imputed, atorvastatin vs pravastatin) was 0.593. The OR (rs11242021, allele T, DOM, Imputed) was 0.5934, the OR (rs11242021, allele T, DOM, Imputed, atorvastatin vs pravastatin) was 0.5934 and the OR (rs11242022, allele T, DOM, Imputed) was 0.5934. It also gave an OR (rs11242022, allele T, DOM, Imputed, atorvastatin vs pravastatin) of 0.5934, an OR (rs11242023, allele T, DOM, Imputed) of 0.5934 and an OR (rs11242023, allele T, DOM, Imputed, atorvastatin vs pravastatin) of 0.5934. The OR (rs11576627, allele T, ADD, Imputed) was 1.439, the OR (rs11576627, allele T, ADD, Imputed, atorvastatin vs pravastatin) was 1.439 and the OR (rs11576627, allele T, DOM, Imputed) was 1.57. For the same compound, the OR (rs11576627, allele T, DOM, Imputed, atorvastatin vs pravastatin) was 1.57, the OR (rs11602189, allele A, DOM, Imputed) was 0.8739 and the OR (rs11605163, allele A, DOM, Imputed) was 1.075. For the same compound, the OR (rs11615214, allele G, ADD, Imputed) was 0.7544, the OR (rs11630050, allele G, REC, Imputed, atorvastatin vs pravastatin) was 1.888 and the OR (rs11633024, allele C, REC, Imputed, atorvastatin vs pravastatin) was 1.888. For the same compound, the OR (rs11636298, allele G, REC, Imputed, atorvastatin vs pravastatin) was 1.965, the OR (rs11637363, allele C, REC, Imputed, atorvastatin vs pravastatin) was 1.982 and the OR (rs11637813, allele A, REC, Imputed, atorvastatin vs pravastatin) was 1.888. The OR (rs11638043, allele C, REC, Imputed, atorvastatin vs pravastatin) was 1.982, the OR (rs11638115, allele A, REC, Imputed, atorvastatin vs pravastatin) was 2.198 and the OR (rs11642394, allele C, DOM, Imputed) was 2.011. The OR (rs11644943, allele A, ADD, Imputed) was 1.464, the OR (rs11656608, allele T, DOM, Imputed) was 0.5127 and the OR (rs11661309, allele A, ADD, Imputed) was 0.8005. The OR (rs11661309 allele A DOM Imputed) was 0.8571, the OR (rs11666131 allele A ADD Imputed) was 1.074 and the OR (rs11682946, allele A, ADD, Imputed, atorvastatin vs pravastatin) was 3.591. For the same compound, the OR (rs11682946, allele A, DOM, Imputed, atorvastatin vs pravastatin) was 3.591, the OR (rs11717157, allele T, ADD, Imputed, atorvastatin vs pravastatin) was 1.051 and the OR (rs11724055, allele A, DOM, Imputed, atorvastatin vs pravastatin) was 0.5373. The OR (rs11743355, allele C, ADD, Imputed, atorvastatin vs pravastatin) was 0.9741, the OR (rs11743355 allele C ADD Imputed) was 0.9741 and the OR (rs11743355 allele C DOM Imputed) was 1.136. The OR (rs11743355 allele C, DOM, Imputed, atorvastatin vs pravastatin) was 1.136, the OR (rs11746806 allele T ADD Imputed) was 0.9741 and the OR (rs11746806 allele T DOM Imputed) was 1.136. The OR (rs11746806 allele T, ADD, Imputed, atorvastatin vs pravastatin) was 0.9741, the OR (rs11746806 allele T, DOM, Imputed, atorvastatin vs pravastatin) was 1.136 and the OR (rs11746959 allele T ADD Imputed) was 0.9741. For the same compound, the OR (rs11746959 allele T DOM Imputed) was 1.136, the OR (rs11746959 allele T, ADD, Imputed, atorvastatin vs pravastatin) was 0.9741 and the OR (rs11746959 allele T, DOM, Imputed, atorvastatin vs pravastatin) was 1.136. It also gave an OR (rs11749272 allele T DOM Imputed) of 0.593.
